Measured values reported in patent publication US20220098591.
For some of these results: No signal at the amounts used counts as a negative. For some of these results: Weaker means in comparison with the reference protein, sequence or condition of that experiment. Construct, isoform or probe ends are uncertain for at least one entry.

Chains of the proteins cited; added tags and fusions are not shown. A line that says so, or that is headed by a name, gives the form on record, which may keep a tag or linker.
UniProt P15692, other isoform, or with tags, fused parts or gaps: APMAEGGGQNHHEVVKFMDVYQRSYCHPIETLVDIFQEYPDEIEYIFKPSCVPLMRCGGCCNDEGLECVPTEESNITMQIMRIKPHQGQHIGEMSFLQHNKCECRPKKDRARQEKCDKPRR

Columns and labels:
VEGF-A121 (Homo sapiens) [1] = molecular target: VEGF-A121 (Homo sapiens) (UniProt P15692); assay: activity in cells; conditions: 2'-F G, 2'-OMe A,C,U, 5' C6NH2, 3' idT, purified recombinant protein, dose not given here
VEGF-A121 (Homo sapiens) [2] = molecular target: VEGF-A121 (Homo sapiens) (UniProt P15692); assay: flow cytometry; conditions: all G 2'-F; all A,C,U 2'-OMe; 5' C6SS; 3' idT; purified recombinant protein; label: DyLight 650 (5' maleimide)
VEGF-A121 (Homo sapiens) [3] = molecular target: VEGF-A121 (Homo sapiens) (UniProt P15692); assay: competition with a labelled probe; conditions: 5' C6NH2, 3' idT, purified recombinant protein

Which functional effect of the aptamer (fold worse than Aptamer 26) (VEGF-A121 (Homo sapiens) [1]; SP3 spacer at position 12 between parts, KDR phosphorylation, VEGF-A isoform not stated for this column) does the source give for “AGGCCGCCUCCCGCGGAGGGGUUUCAUUAUCCCGUUUGGCGGCUU [Aptamer 50]” here?
Its functional effect of the aptamer (fold worse than Aptamer 26) is over 100.

With “AGGCCGCCUCCGCCGGAGGGGUUUCAUUAUCCCGUUUGGCGGCUU [Aptamer 52]” as the sequence, how does the functional effect of the aptamer (fold worse than Aptamer 26) (VEGF-A121 (Homo sapiens) [1]; SP3 spacer at position 14 between parts, KDR phosphorylation, VEGF-A isoform not stated for this column) read?
The functional effect of the aptamer (fold worse than Aptamer 26) was over 100.

For “AGGCCGCCUCCGCGCGAGGGGUUUCAUUAUCCCGUUUGGCGGCUU [Aptamer 54]”, which functional effect of the aptamer (fold worse than Aptamer 26) (VEGF-A121 (Homo sapiens) [1]; SP3 spacer at position 16 between parts, KDR phosphorylation, VEGF-A isoform not stated for this column) is on record?
The functional effect of the aptamer (fold worse than Aptamer 26) was over 100.

How did the functional effect of the aptamer (fold worse than Aptamer 26) (VEGF-A121 (Homo sapiens) [1]; SP3 spacer at position 17 between parts, KDR phosphorylation, VEGF-A isoform not stated for this column) turn out when “AGGCCGCCUCCGCGCGAGGGGUUUCAUUAUCCCGUUUGGCGGCUU [Aptamer 55]” was run?
The functional effect of the aptamer (fold worse than Aptamer 26) was over 100.

“AGGCCGCCUCCGCGCGGAGGGGUUUCAUUACCCGUUUGGCGGCUU [Aptamer 69]” was tested. Which functional effect of the aptamer (fold worse than Aptamer 26) (VEGF-A121 (Homo sapiens) [1]; SP3 spacer at position 31 between parts, KDR phosphorylation, VEGF-A isoform not stated for this column) did it give?
Its functional effect of the aptamer (fold worse than Aptamer 26) is over 100.

With “AGGCCGCCUCCGCGCGGAGGGGUUUCAUUAUCCCGUUGGCGGCUU [Aptamer 74]” as the sequence, how does the functional effect of the aptamer (fold worse than Aptamer 26) (VEGF-A121 (Homo sapiens) [1]; SP3 spacer at position 36 between parts, KDR phosphorylation, VEGF-A isoform not stated for this column) read?
Its functional effect of the aptamer (fold worse than Aptamer 26) is over 100.

Which “functional effect of the aptamer” value (VEGF-A121 (Homo sapiens) [1]; SP3 spacer at position 37 between parts, KDR phosphorylation, VEGF-A isoform not stated for this column) does the source give for “AGGCCGCCUCCGCGCGGAGGGGUUUCAUUAUCCCGUUGGCGGCUU [Aptamer 75]” here?
Its value is “less active”.

How did the functional effect of the aptamer (fold worse than Aptamer 26) (VEGF-A121 (Homo sapiens) [1]; SP3 spacer at position 38 between parts, KDR phosphorylation, VEGF-A isoform not stated for this column) turn out when “AGGCCGCCUCCGCGCGGAGGGGUUUCAUUAUCCCGUUGGCGGCUU [Aptamer 76]” was run?
The functional effect of the aptamer (fold worse than Aptamer 26) was over 100.

Does “AGGCCGCCUCCGCGCGGAGGGGUUUCAUUAUCCCGUUUGGCGGCUU [Aptamer 4.2 (r7-01)]” bind (VEGF-A121 (Homo sapiens) [2])?
Result: binds

For “AGGCCGCCUCCGCGCGGAGGGGUUUCAUUAUCCCUUUGGCGGCUU [Aptamer 73]”, which functional effect of the aptamer (fold worse than Aptamer 26) (VEGF-A121 (Homo sapiens) [1]; SP3 spacer at position 35 between parts, KDR phosphorylation, VEGF-A isoform not stated for this column) is on record?
Its functional effect of the aptamer (fold worse than Aptamer 26) is over 100.

Which functional effect of the aptamer (fold worse than Aptamer 26) (VEGF-A121 (Homo sapiens) [1]; SP3 spacer at position 32 between parts, KDR phosphorylation, VEGF-A isoform not stated for this column) does the source give for “AGGCCGCCUCCGCGCGGAGGGGUUUCAUUAUCCGUUUGGCGGCUU [Aptamer 70]” here?
Its functional effect of the aptamer (fold worse than Aptamer 26) is over 100.

Which functional effect of the aptamer (fold worse than Aptamer 26) (VEGF-A121 (Homo sapiens) [1]; SP3 spacer at position 33 between parts, KDR phosphorylation, VEGF-A isoform not stated for this column) does the source give for “AGGCCGCCUCCGCGCGGAGGGGUUUCAUUAUCCGUUUGGCGGCUU [Aptamer 71]” here?
Its functional effect of the aptamer (fold worse than Aptamer 26) is over 100.

For “AGGCCGCCUCCGCGCGGAGGGGUUUCAUUAUCCGUUUGGCGGCUU [Aptamer 72]”, which functional effect of the aptamer (fold worse than Aptamer 26) (VEGF-A121 (Homo sapiens) [1]; SP3 spacer at position 34 between parts, KDR phosphorylation, VEGF-A isoform not stated for this column) is on record?
The functional effect of the aptamer (fold worse than Aptamer 26) was over 100.

How did the functional effect of the aptamer (fold worse than Aptamer 26) (VEGF-A121 (Homo sapiens) [1]; SP3 spacer at position 19 between parts, KDR phosphorylation, VEGF-A isoform not stated for this column) turn out when “AGGCCGCCUCCGCGCGGAGGGUUUCAUUAUCCCGUUUGGCGGCUU [Aptamer 57]” was run?
Its functional effect of the aptamer (fold worse than Aptamer 26) is over 100.

With “AGGCCGCCUCCGCGCGGAGGGUUUCAUUAUCCCGUUUGGCGGCUU [Aptamer 58]” as the sequence, how does the functional effect of the aptamer (fold worse than Aptamer 26) (VEGF-A121 (Homo sapiens) [1]; SP3 spacer at position 20 between parts, KDR phosphorylation, VEGF-A isoform not stated for this column) read?
Its functional effect of the aptamer (fold worse than Aptamer 26) is over 100.

Which functional effect of the aptamer (fold worse than Aptamer 26) (VEGF-A121 (Homo sapiens) [1]; SP3 spacer at position 21 between parts, KDR phosphorylation, VEGF-A isoform not stated for this column) does the source give for “AGGCCGCCUCCGCGCGGAGGGUUUCAUUAUCCCGUUUGGCGGCUU [Aptamer 59]” here?
The functional effect of the aptamer (fold worse than Aptamer 26) was over 100.

For “AGGCCGCCUCCGCGCGGAGGGUUUCAUUAUCCCGUUUGGCGGCUU [Aptamer 60]”, which functional effect of the aptamer (fold worse than Aptamer 26) (VEGF-A121 (Homo sapiens) [1]; SP3 spacer at position 22 between parts, KDR phosphorylation, VEGF-A isoform not stated for this column) is on record?
Its functional effect of the aptamer (fold worse than Aptamer 26) is over 100.

Which functional effect of the aptamer (fold worse than Aptamer 26) (VEGF-A121 (Homo sapiens) [1]; SP3 spacer at position 18 between parts, KDR phosphorylation, VEGF-A isoform not stated for this column) does the source give for “AGGCCGCCUCCGCGCGGGGGGUUUCAUUAUCCCGUUUGGCGGCUU [Aptamer 56]” here?
The functional effect of the aptamer (fold worse than Aptamer 26) was over 100.

For “AGGCCGCCUCCGCGGGAGGGGUUUCAUUAUCCCGUUUGGCGGCUU [Aptamer 53]”, which functional effect of the aptamer (fold worse than Aptamer 26) (VEGF-A121 (Homo sapiens) [1]; SP3 spacer at position 15 between parts, KDR phosphorylation, VEGF-A isoform not stated for this column) is on record?
Its functional effect of the aptamer (fold worse than Aptamer 26) is over 100.

With “AGGCCGCCUCCGGCGGAGGGGUUUCAUUAUCCCGUUUGGCGGCUU [Aptamer 51]” as the sequence, how does the functional effect of the aptamer (fold worse than Aptamer 26) (VEGF-A121 (Homo sapiens) [1]; SP3 spacer at position 13 between parts, KDR phosphorylation, VEGF-A isoform not stated for this column) read?
Its functional effect of the aptamer (fold worse than Aptamer 26) is over 100.

With “AGGCCGCCUCGCGCGGAGGGGUUUCAUUAUCCCGUUUGGCGGCUU [Aptamer 48]” as the sequence, how does the functional effect of the aptamer (fold worse than Aptamer 26) (VEGF-A121 (Homo sapiens) [1]; SP3 spacer (1,3-propanediol) at position 10 between parts, KDR phosphorylation, VEGF-A isoform not stated for this column) read?
The functional effect of the aptamer (fold worse than Aptamer 26) was over 100.

For “AGGCCGCCUCGCGCGGAGGGGUUUCAUUAUCCCGUUUGGCGGCUU [Aptamer 49]”, which functional effect of the aptamer (fold worse than Aptamer 26) (VEGF-A121 (Homo sapiens) [1]; SP3 spacer at position 11 between parts, KDR phosphorylation, VEGF-A isoform not stated for this column) is on record?
Its functional effect of the aptamer (fold worse than Aptamer 26) is over 100.

Does “GCCGACCCGCGCGGAGGGGUUUCAUUAUCCCGUUUGUCGGC [Aptamer 214]” bind (VEGF-A121 (Homo sapiens) [3]; 2'-F G except 2'-OMe G at 3,6,42,43 (Aptamer 141 numbering), 2'-OMe A,C,U, SP3 spacer between parts)?
Result: binds

Does “GCCGACCCGCGCGGAGGGGUUUCAUUAUCCCGUUUGUCGGC [Aptamer 215]” bind (VEGF-A121 (Homo sapiens) [3]; 2'-F G except 2'-OMe G at 3,22,42,43 (Aptamer 141 numbering), 2'-OMe A,C,U, SP3 spacer between parts)?
Result: binds

Does “GCCGACCCGCGCGGAGGGGUUUCAUUAUCCCGUUUGUCGGC [Aptamer 216]” bind (VEGF-A121 (Homo sapiens) [3]; 2'-F G except 2'-OMe G at 3,39,42,43 (Aptamer 141 numbering), 2'-OMe A,C,U, SP3 spacer between parts)?
Result: binds

Does “GCCGACCCGCGCGGAGGGGUUUCAUUAUCCCGUUUGUCGGC [Aptamer 217]” bind (VEGF-A121 (Homo sapiens) [3]; 2'-F G except 2'-OMe G at 3,6,22,42,43 (Aptamer 141 numbering), 2'-OMe A,C,U, SP3 spacer between parts)?
Result: binds

Does “GCCGACCCGCGCGGAGGGGUUUCAUUAUCCCGUUUGUCGGC [Aptamer 218]” bind (VEGF-A121 (Homo sapiens) [3]; 2'-F G except 2'-OMe G at 3,6,39,42,43 (Aptamer 141 numbering), 2'-OMe A,C,U, SP3 spacer between parts)?
Result: binds

Does “GCCGACCCGCGCGGAGGGGUUUCAUUAUCCCGUUUGUCGGC [Aptamer 219]” bind (VEGF-A121 (Homo sapiens) [3]; 2'-F G except 2'-OMe G at 3,22,39,42,43 (Aptamer 141 numbering), 2'-OMe A,C,U, SP3 spacer between parts)?
Result: binds

Does “GCCGACCCGCGCGGAGGGGUUUCAUUAUCCCGUUUGUCGGC [Aptamer 220]” bind (VEGF-A121 (Homo sapiens) [3]; 2'-F G except 2'-OMe G at 3,6,22,39,42,43 (Aptamer 141 numbering), 2'-OMe A,C,U, SP3 spacer between parts)?
Result: binds

Which “functional effect of the aptamer” value (VEGF-A121 (Homo sapiens) [1]; KDR phosphorylation in HEK293-KDR) does the source give for “UAGGCCGCCUCCGCGCGGGGGGGUUUCAUUAUCCCGUUUGGCGGCUUU [Aptamer 27]” here?
The value was “not active”.

Does “UAGGCCGCCUCCGCGCGGUGGGGUUUCAUUAUCCCGUUUGGCGGCUUU [Aptamer 28]” bind (VEGF-A121 (Homo sapiens) [3]; all G 2'-F, A,C,U 2'-OMe, variant of Aptamer 26)?
Result: binds more weakly
